Test results reported in patent US20110160308A1, “Use of Monoamine Oxidase Inhibitors to Treat Outer Retina Disorders” (ALCON RESEARCH, LTD., priority 2006, published 2011).
At least one structure is not confirmed: it was looked up by name or label, or the drawing left a doubt.

Tested on: light-induced functional or morphological changes
Test: Light damage paradigms used by the present inventors
Assay type: in vivo

Compound	preventing light-induced functional or morphological changes
O=C1O[C@H]([C@@H](O)CO)C(O)=C1O [ascorbate]	marginally effective at high doses
COC(=O)C1=C(C)NC(C)=C(C(=O)OCCN(C)Cc2ccccc2)C1c1cccc([N+](=O)[O-])c1 (centres unmarked) [nicardipine]	moderately effective
